One test has as its target T1, YFP-COP1 (Arabidopsis) (UniProt P43254).
T1 sequence: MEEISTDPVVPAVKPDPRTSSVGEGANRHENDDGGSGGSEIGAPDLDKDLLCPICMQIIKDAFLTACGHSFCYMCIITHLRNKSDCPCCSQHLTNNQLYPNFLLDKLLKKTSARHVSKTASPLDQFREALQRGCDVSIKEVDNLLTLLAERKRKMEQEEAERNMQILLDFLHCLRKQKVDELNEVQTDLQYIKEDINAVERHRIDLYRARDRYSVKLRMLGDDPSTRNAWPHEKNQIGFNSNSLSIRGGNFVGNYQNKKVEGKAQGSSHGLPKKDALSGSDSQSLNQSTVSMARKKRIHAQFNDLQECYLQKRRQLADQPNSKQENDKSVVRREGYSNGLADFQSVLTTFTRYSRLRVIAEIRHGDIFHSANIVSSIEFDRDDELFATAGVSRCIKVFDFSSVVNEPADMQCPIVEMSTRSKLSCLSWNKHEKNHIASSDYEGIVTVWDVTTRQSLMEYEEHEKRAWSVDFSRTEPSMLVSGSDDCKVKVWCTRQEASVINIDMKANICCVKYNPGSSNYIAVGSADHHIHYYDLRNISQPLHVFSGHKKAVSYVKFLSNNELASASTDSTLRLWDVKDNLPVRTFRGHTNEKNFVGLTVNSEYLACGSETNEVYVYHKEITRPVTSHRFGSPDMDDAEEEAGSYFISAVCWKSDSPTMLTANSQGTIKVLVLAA
Description: FRET or BRET; FRET-FLIM; lifetime of the donor YFP-COP1 in the whole nucleus of leek epidermal cells after particle bombardment; acceptor mCherry-PAP2; CFP or CFP-CRY1 co-expressed as third protein. Background: BRET reads energy transfer from a luciferase to a nearby fluorophore.

The chains behind the UniProt entries cited, without tags or fusion partners.
UniProt Q43125: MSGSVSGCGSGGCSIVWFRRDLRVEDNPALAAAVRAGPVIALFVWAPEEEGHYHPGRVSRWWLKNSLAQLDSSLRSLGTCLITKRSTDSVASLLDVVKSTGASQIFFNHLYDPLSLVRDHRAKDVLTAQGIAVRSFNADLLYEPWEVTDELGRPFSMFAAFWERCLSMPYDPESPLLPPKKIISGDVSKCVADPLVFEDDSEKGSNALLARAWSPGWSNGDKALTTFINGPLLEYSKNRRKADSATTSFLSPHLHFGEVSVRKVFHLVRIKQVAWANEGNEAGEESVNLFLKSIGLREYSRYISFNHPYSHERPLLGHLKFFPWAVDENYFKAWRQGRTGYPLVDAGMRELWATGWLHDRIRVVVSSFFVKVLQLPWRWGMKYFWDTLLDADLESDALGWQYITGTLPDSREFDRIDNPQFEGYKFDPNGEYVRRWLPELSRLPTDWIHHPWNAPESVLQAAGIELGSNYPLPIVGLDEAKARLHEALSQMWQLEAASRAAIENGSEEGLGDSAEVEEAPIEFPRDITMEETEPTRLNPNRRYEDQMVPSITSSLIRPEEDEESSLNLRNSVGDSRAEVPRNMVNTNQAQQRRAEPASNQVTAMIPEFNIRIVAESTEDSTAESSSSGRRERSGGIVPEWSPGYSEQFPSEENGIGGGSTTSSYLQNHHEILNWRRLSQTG

Test [1] concerns the target T2, COP1 (LexA-based yeast two-hybrid fusion) (Arabidopsis) (UniProt P43254).
T2 sequence: T1 sequence
Description: two-hybrid; LexA-based yeast two-hybrid; yeast 24 h in darkness, then 24 h in 50 umol m^-2 s^-1 blue light or darkness; 'apparent strength'.

The target in the next test is T3, BD-COP1 (Arabidopsis) (UniProt P43254).
T3 sequence: T1 sequence
Description: two-hybrid; Gal4-based yeast three-hybrid, third protein co-expressed as 'bridge protein'; beta-galactosidase activity; yeast 2 days in darkness, or 1 day in darkness and 1 day in 50 umol m^-2 s^-1 blue light.

Test [2] addresses T4, cLUC-COP1 (Arabidopsis) (UniProt P43254).
T4 sequence: T1 sequence
Description: split reporter; luciferase complementation imaging (LCI); nLUC and cLUC fusion proteins expressed in transfected N. benthamiana leaves; luminescence imaged with a CCD camera and quantified, also on leaf discs in a plate reader (GFP-NLS-GUS as transfection control).

The target of a further test is T5, E-COP1 (Arabidopsis) (UniProt P43254).
T5 sequence: T1 sequence
Nature of the test: two-hybrid; mammalian two-hybrid (M2H) in CHO-K1 cells; bait fused to the erythromycin repressor protein (E), prey to VP16; SEAP reporter normalised to secreted NanoLuciferase; cells illuminated with blue light.

The target in test [3] is T4, cLUC-COP1 (Arabidopsis). Description: split reporter; LCI competition: cLUC-COP1 and an nLUC-fused substrate co-expressed with a GFP-tagged third protein or GFP-NLS-GUS (negative control) in transfected N. benthamiana leaves; TagRFP as transfection control.

These are yes or no findings as the source states them, for the method shown. For some assays here: Binding seen in cells or lysates may run through a third protein. Some entries that bind do so weakly or less than the wild type. For some assays here: Where a sequence is shown, tags or fusion partners need not be part of it.

For CFP-CRY1 (from UniProt Q43125 1-681), the binding entry with YFP-COP1 (Arabidopsis) was “binds”. Regarding “CRY1 (LexA-based yeast two-hybrid fusion) (from UniProt Q43125 1-681)”, in test [1], the binding entry is listed as “binds”.

In the case of “CRY1 (yeast three-hybrid 'bridge protein') (from UniProt Q43125 1-681)”, the binding result with BD-COP1 (Arabidopsis) is listed as “binds”.

“CRY1 fused to the N-terminal half of luciferase (nLUC) (from UniProt Q43125 1-681)”: in the test with cLUC-COP1 (Arabidopsis) [2], the binding result was “binds”. With CRY1-VP16 (from UniProt Q43125 1-681), the binding entry in the test with E-COP1 (Arabidopsis) is “binds”.

B1: AD-PAP2 (protein, UniProt Q9ZTC3 1-249)
chain: MEGSSKGLRKGAWTAEEDSLLRLCIDKYGEGKWHQVPLRAGLNRCRKSCRLRWLNYLKPSIKRGRLSNDEVDLLLRLHKLLGNRWSLIAGRLPGRTANDVKNYWNTHLSKKHESSCCKSKMKKKNIISPPTTPVQKIGVFKPRPRSFSVNNGCSHLNGLPEVDLIPSCLGLKKNNVCENSITCNKDDEKDDFVNNLMNGDNMWLENLLGENQEADAIVPEATTAEHGATLAFDVEQLWSLFDGETVELD
With B1, the binding result in the test with BD-COP1 (Arabidopsis) was “binds”.

B2: PAP2-nLUC (protein, UniProt Q9ZTC3 1-249)
chain: B1 chain
For B2, in the test with cLUC-COP1 (Arabidopsis) [3], the binding entry is recorded as “binds”.

B3: mCherry-PAP2 (protein, UniProt Q9ZTC3 1-249)
chain: B1 chain
B3: the binding result with YFP-COP1 (Arabidopsis) is on record as “binds”.

The values are drawn from PMC11886768 (2025).
